In PubChem BioAssay AID248 (DTP/NCI, 2004):
The list shows only some results of the screen, not a fair sample: it gathers tests that were run many times, whatever their T/C, doses with no T/C, and many T/C values between a quarter and a half above the control. Further doses and runs are listed elsewhere. T/C: endpoint of the treated group in % of that of the vehicle group. Some doses have a count of surviving animals in place of a T/C: the source holds a T/C of zero for them, seemingly a mark for toxic or unscored doses. Some doses without a T/C left all or most animals alive at the check, yet need not have been tolerated: survival well below the control is almost never listed, so the zero probably covers shortened survival too. Counts of survivors are from the toxicity check (mostly the fifth day) where no day follows; animals may have died later. Schedule codes are those of the source, read here as Q, the interval in days (D) or hours (H), X, the number of doses. Some entries hold several experiments; the results are listed from low to high. Some schedules carry Z or #; the key to these is not given. For survival time, this PubChem deposit counts one and a half times the control or more as active, and values a quarter to a half above the control carry no call in these data; other NCI protocols may use other cut-offs.

Tested on: L1210 leukemia ip in BDF1 mice, survival T/C
Assay: NCI In Vivo Anticancer Drug Screen. Data for tumor model L1210 Leukemia (intraperitoneal) in B6D2F1 (BDF1) mice
Conditions: higher T/C = longer survival
[1] = T/C endpoint: mean survival time, dose: 400.0 mg/kg/injection, schedule: Q01DX009 (ip), vehicle: Klucel (hydroxypropylcellulose) (HPC)
[2] = T/C endpoint: mean survival time, dose: 400.0 mg/kg/injection, schedule: Q04DX003 (ip), vehicle: saline with Tween-80
[3] = T/C endpoint: mean survival time, dose: 400.0 mg/kg/injection, schedule: Q04DX003 (ip), vehicle: Klucel (hydroxypropylcellulose) (HPC)

CC(C)(C)OC(=O)NNC(=O)c1ccc([N+](=O)[O-])cc1
survivor count (T/C endpoint: mean survival time, dose: 120.0 mg/kg/injection, schedule: Q01DX009 (ip), vehicle: Klucel (hydroxypropylcellulose) (HPC)): 6 of 6
survivor count (T/C endpoint: mean survival time, dose: 180.0 mg/kg/injection, schedule: Q01DX009 (ip), vehicle: Klucel (hydroxypropylcellulose) (HPC)): 6 of 6
survivor count (T/C endpoint: mean survival time, dose: 400.0 mg/kg/injection, schedule: Q01DX001 (ip), vehicle: other): 3 of 6

N=C(N(O)C(=O)Nc1ccccc1)C(Cl)(Cl)Cl
survivor count (T/C endpoint: mean survival time, dose: 200.0 mg/kg/injection, schedule: Q01DX009 (ip), vehicle: Klucel (hydroxypropylcellulose) (HPC)): 3 of 6
survivor count [1]: 0 of 6

Cc1cccnc1NC(=O)NCCCl
survivor count [1]: 2 of 6

C/C(=N\N=C(N)N)c1ccc(NC(N)=S)cc1
survivor count (T/C endpoint: mean survival time, dose: 80.0 mg/kg/injection, schedule: Q01DX005 (ip), vehicle: saline): 0 of 6
survivor count (T/C endpoint: mean survival time, dose: 160.0 mg/kg/injection, schedule: Q01DX005 (ip), vehicle: saline): 0 of 6
survivor count (T/C endpoint: mean survival time, dose: 320.0 mg/kg/injection, schedule: Q01DX005 (ip), vehicle: saline): 0 of 6

CC1CCC2CON(C(C)(C)C)C2C1 (stereo not drawn)
survivor count (T/C endpoint: mean survival time, dose: 100.0 mg/kg/injection, schedule: Q04DX003 (ip), vehicle: saline with Tween-80): 0 of 6
survivor count (T/C endpoint: mean survival time, dose: 200.0 mg/kg/injection, schedule: Q01DX009 (ip), vehicle: saline with Tween-80): 1 of 6
survivor count [2]: 0 of 6

CN=C(NC(C)C)c1ccc(NC(=O)c2ccc(C(=O)Nc3ccc(C(=NC)NC(C)C)cc3)cc2)cc1
T/C (T/C endpoint: mean survival time, dose: 8.0 mg/kg/injection, schedule: Q01DX Z (ip), vehicle: carboxymethylcellulose (CMC)): 143 and 148 % of control
survivor count (T/C endpoint: mean survival time, dose: 31.0 mg/kg/injection, schedule: Q01DX Z (ip), vehicle: carboxymethylcellulose (CMC)): 0 of 6
survivor count (T/C endpoint: mean survival time, dose: 62.0 mg/kg/injection, schedule: Q01DX Z (ip), vehicle: carboxymethylcellulose (CMC)): 0 of 6

C=CCNC(=O)NCC=C
T/C (T/C endpoint: mean survival time, dose: 25.0 mg/kg/injection, schedule: Q01DX009 (ip), vehicle: saline): 111, 116, 117, 132 % of control
T/C (T/C endpoint: mean survival time, dose: 25.0 mg/kg/injection, schedule: Q01DX009 (oral), vehicle: saline): 130 % of control
T/C (T/C endpoint: mean survival time, dose: 50.0 mg/kg/injection, schedule: Q01DX009 (ip), vehicle: saline): 111, 114, 125, 126, 143 % of control
T/C (T/C endpoint: mean survival time, dose: 50.0 mg/kg/injection, schedule: Q01DX009 (oral), vehicle: saline): 141 % of control
T/C (T/C endpoint: mean survival time, dose: 89.0 mg/kg/injection, schedule: Q01DX009 (ip), vehicle: saline): 139 % of control
T/C (T/C endpoint: mean survival time, dose: 100.0 mg/kg/injection, schedule: Q01DX009 (ip), vehicle: saline): 117, 121, 124, 152 % of control
T/C (T/C endpoint: mean survival time, dose: 133.0 mg/kg/injection, schedule: Q01DX009 (ip), vehicle: saline): 143 % of control
T/C (T/C endpoint: mean survival time, dose: 200.0 mg/kg/injection, schedule: Q01DX009 (ip), vehicle: saline): 127, 141, 156, 157, 159 % of control
survivor count (T/C endpoint: mean survival time, dose: 200.0 mg/kg/injection, schedule: Q01DX009 (oral), vehicle: saline): 6 of 6
survivor count (T/C endpoint: mean survival time, dose: 400.0 mg/kg/injection, schedule: Q01DX001 (ip), vehicle: saline): 2 of 6
survivor count (T/C endpoint: mean survival time, dose: 400.0 mg/kg/injection, schedule: Q01DX009 (ip), vehicle: saline): 0 of 6 and 3 of 6
survivor count (T/C endpoint: mean survival time, dose: 400.0 mg/kg/injection, schedule: Q01DX009 (oral), vehicle: saline): 4 of 6 and 6 of 6
T/C (T/C endpoint: median survival time, dose: 25.0 mg/kg/injection, schedule: Q01DX009 (ip), vehicle: saline): 127 % of control
T/C (T/C endpoint: median survival time, dose: 25.0 mg/kg/injection, schedule: Q01DX009 (sc), vehicle: saline): 133 % of control
T/C (T/C endpoint: median survival time, dose: 50.0 mg/kg/injection, schedule: Q01DX009 (ip), vehicle: saline): 138 % of control
T/C (T/C endpoint: median survival time, dose: 50.0 mg/kg/injection, schedule: Q01DX009 (sc), vehicle: saline): 133 % of control
T/C (T/C endpoint: median survival time, dose: 100.0 mg/kg/injection, schedule: Q01DX009 (sc), vehicle: saline): 133 % of control
T/C (T/C endpoint: median survival time, dose: 200.0 mg/kg/injection, schedule: Q01DX009 (ip), vehicle: saline): 144 % of control
T/C (T/C endpoint: median survival time, dose: 200.0 mg/kg/injection, schedule: Q01DX009 (sc), vehicle: saline): 144 % of control
survivor count (T/C endpoint: median survival time, dose: 400.0 mg/kg/injection, schedule: Q01DX001 (ip), vehicle: saline): 1 of 8
survivor count (T/C endpoint: median survival time, dose: 400.0 mg/kg/injection, schedule: Q01DX001 (sc), vehicle: saline): 5 of 8
survivor count (T/C endpoint: median survival time, dose: 400.0 mg/kg/injection, schedule: Q01DX009 (ip), vehicle: saline): 2 of 6, 3 of 6, 4 of 8
survivor count (T/C endpoint: median survival time, dose: 400.0 mg/kg/injection, schedule: Q01DX009 (sc), vehicle: saline): 2 of 8
survivor count (T/C endpoint: median survival time, dose: 400.0 mg/kg/injection, schedule: Q04DX003 (ip), vehicle: saline): 4 of 8
survivor count (T/C endpoint: median survival time, dose: 400.0 mg/kg/injection, schedule: Q04DX003 (sc), vehicle: saline): 3 of 8
survivor count (T/C endpoint: median survival time, dose: 800.0 mg/kg/injection, schedule: Q01DX001 (ip), vehicle: saline): 0 of 8
survivor count (T/C endpoint: median survival time, dose: 800.0 mg/kg/injection, schedule: Q01DX001 (sc), vehicle: saline): 0 of 8
survivor count (T/C endpoint: median survival time, dose: 800.0 mg/kg/injection, schedule: Q04DX003 (ip), vehicle: saline): 0 of 8
survivor count (T/C endpoint: median survival time, dose: 800.0 mg/kg/injection, schedule: Q04DX003 (sc), vehicle: saline): 1 of 8

O=C(O)c1ccc(F)c(F)c1F
survivor count (T/C endpoint: mean survival time, dose: 400.0 mg/kg/injection, schedule: Q04DX002 (ip), vehicle: other): 1 of 3

Nc1nc(CCl)nc(Nc2ccccc2)n1
survivor count [1]: 0 of 6
survivor count [3]: 3 of 6

CC(C)(C)OC1C2C=CC1C1C2C(C)(C)C1(C)C (stereo not drawn)
survivor count (T/C endpoint: mean survival time, dose: 400.0 mg/kg/injection, schedule: Q01DX001 (ip), vehicle: saline with Tween-80): 6 of 6

CCC1CCC(NC(=O)N(CCF)N=O)CC1 (stereo not drawn)
T/C (T/C endpoint: mean survival time, dose: 26.0 mg/kg/injection, schedule: Q01DX001 (ip), vehicle: other): 129 % of control
T/C (T/C endpoint: mean survival time, dose: 40.0 mg/kg/injection, schedule: Q01DX001 (ip), vehicle: other): 139 % of control
survivor count (T/C endpoint: mean survival time, dose: 187.0 mg/kg/injection, schedule: Q01DX001 (ip), vehicle: other): 3 of 10
survivor count (T/C endpoint: mean survival time, dose: 375.0 mg/kg/injection, schedule: Q01DX001 (ip), vehicle: other): 0 of 10
survivor count (T/C endpoint: mean survival time, dose: 500.0 mg/kg/injection, schedule: Q01DX001 (ip), vehicle: other): 0 of 10

CC(N)c1ccccc1Cl (stereo not drawn)
survivor count (T/C endpoint: mean survival time, dose: 100.0 mg/kg/injection, schedule: Q04DX003 (ip), vehicle: saline): 6 of 6
survivor count (T/C endpoint: mean survival time, dose: 200.0 mg/kg/injection, schedule: Q04DX003 (ip), vehicle: saline): 4 of 6
survivor count (T/C endpoint: mean survival time, dose: 400.0 mg/kg/injection, schedule: Q04DX003 (ip), vehicle: saline): 0 of 6

Cc1cc(N(CCOS(C)(=O)=O)CCOS(C)(=O)=O)ccc1C=Nc1cc(Br)c(O)c(Br)c1
T/C (T/C endpoint: mean survival time, dose: 50.0 mg/kg/injection, schedule: Q04DX003 (ip), vehicle: Klucel (hydroxypropylcellulose) (HPC)): 126 % of control
T/C (T/C endpoint: mean survival time, dose: 100.0 mg/kg/injection, schedule: Q04DX003 (ip), vehicle: Klucel (hydroxypropylcellulose) (HPC)): 89, 127, 144, 153 % of control
survivor count (T/C endpoint: mean survival time, dose: 150.0 mg/kg/injection, schedule: Q04DX003 (ip), vehicle: Klucel (hydroxypropylcellulose) (HPC)): 5 of 6
survivor count (T/C endpoint: mean survival time, dose: 200.0 mg/kg/injection, schedule: Q04DX003 (ip), vehicle: Klucel (hydroxypropylcellulose) (HPC)): 6 of 6
survivor count [3]: 1 of 6

c1cc2c3c(c1)nc(CCc1nc4cccc5c4n1CCC5)n3CCC2
survivor count (T/C endpoint: mean survival time, dose: 200.0 mg/kg/injection, schedule: Q04DX003 (ip), vehicle: saline with Tween-80): 6 of 6

O=C(c1ccc(-c2ccccc2)cc1)C(Br)CCBr (stereo not drawn)
survivor count [2]: 2 of 6
